Measurements published in PubChem BioAssay AID504834 (National Center for Advancing Translational Sciences (NCATS), 2011).
The whole screen tested about 320,000 compounds, of which about 22,000 (6.9%) were called active. Inconclusive means that the source gave no clear call. Such entries were picked first, then a sample of the others. Calls follow the shape of the dose curve; as a rule, active = well fitted inhibition curve with a large enough effect; inconclusive = small, poorly fitted or top-dose-only effect, or another doubt; inactive = no such curve, though single readings can be large or run the other way. Potencies beside an inconclusive call are fits to weak or partial responses and may not hold up.

Test: Primary qHTS for delayed death inhibitors of the malarial parasite plastid, 96 hour incubation
Conditions: P. falciparum luciferase reporter growth; series mostly up to 28.7 µM
Procedure, shortened: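 Luminescence readout: decreased luciferase signal marks inhibited growth of reporter-expressing P. falciparum in infected red cells (2% hematocrit, 0.05% parasitemia final), exposed to compound two generations (96 h, 37 C, 5% CO2).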
Potency is read from the fitted curve at half-maximal effect.

Q: For `CCOc1ccc(NC(=O)CSc2nc3ccccc3c(=O)n2CCNC(C)=O)cc1`, which Potency is on record?
A: inconclusive: 0.0828 µM [inhibitor, full curve, poor fit]

Q: For `CCNC(=O)CSc1nnc(-c2cccc(S(=O)(=O)N(CC)CC)c2)n1CCc1ccccc1`, which Potency is on record?
A: inconclusive: 2.08 µM [inhibitor, partial curve, poor fit]

Q: With `Cc1ccc(CSCC(=O)N(CCC(C)C)c2c(N)n(Cc3ccccc3)c(=O)[nH]c2=O)cc1` as the compound, how does the Potency read?
A: inconclusive: 14.7 µM [inhibitor, partial curve]

Q: Which Potency does the source give for `COCc1c(C(=O)N2CCN(c3ncccn3)CC2)oc2ccccc12` here?
A: inconclusive: 9.28 µM [inhibitor, single point]

Q: With `C#CCOCCOCCOCCNc1nc(N2CCN(C(=O)CCCCCCCCCCNC(=O)Cn3cc(C[C@@H](C)O)nn3)CC2)nc(N2CCN(C(=O)CCCCCCCCCCNC(=O)[C@H](CCCCN)n3cc(C[C@@H](C)CC)nn3)CC2)n1` as the compound, how does the Potency read?
A: active: 0.465 µM

Q: With `COc1ccc(NC(=O)CCNS(=O)(=O)c2cccc(C(C)=O)c2)cc1S(N)(=O)=O` as the compound, how does the Potency read?
A: inconclusive: 0.465 µM [inhibitor, full curve, poor fit]

Q: For `Cc1cc(C)c(-c2csc(NC(=O)c3n[nH]c(=O)c4ccccc34)n2)c(C)c1`, which Potency is on record?
A: inconclusive: 0.928 µM [inhibitor, partial curve]

Q: For `CCC(=O)N1CC(C)C(=O)Nc2ccccc21` (stereo not drawn), which Potency is on record?
A: inconclusive: 0.415 µM [inhibitor, full curve, poor fit]

Q: For `Cc1ccc(Cc2nnc3n(-c4cccc(C)c4)nc(C(=O)c4ccccc4)n3c2=O)cc1`, which Potency is on record?
A: active: 3.7 µM

Q: With `COc1ccc(CNC2c3ccccc3-c3ccccc32)cc1OC` as the compound, how does the Potency read?
A: inconclusive: 14.7 µM [inhibitor, single point]

Q: For `O=C1CSC(=S)N1c1cccc(Br)c1`, which Potency is on record?
A: inactive

Q: For `CC(C)(C)C(=O)Nc1ccc2c(c1)-c1cc(NC(=O)C(C)(C)C)ccc1C2`, which Potency is on record?
A: inconclusive: 0.0329 µM [inhibitor, full curve, poor fit]

Q: With `O=C(/C=C/c1ccc(OCCCF)cc1)N1CCN(Cc2ccccc2)CC1` as the compound, how does the Potency read?
A: inconclusive: 13.1 µM [inhibitor, partial curve, poor fit]

Q: With `CC1CCC(NC(=O)C2c3ccccc3C(=O)N2Cc2cccs2)CC1` (stereo not drawn) as the compound, how does the Potency read?
A: inactive

Q: For `CC(C)CCn1nnnc1C(c1ccc(N(C)C)cc1)N1CCN(C(=O)c2ccco2)CC1` (stereo not drawn), which Potency is on record?
A: active: 10.4 µM

Q: With `Cc1onc(-c2c(F)cccc2Cl)c1C(=O)N1CCOC12CCCCC2` as the compound, how does the Potency read?
A: inactive

Q: Which Potency does the source give for `Cc1cnc(C(=O)OCC(=O)c2ccc(-c3ccccc3)cc2)cn1` here?
A: inconclusive: 18.5 µM [inhibitor, single point]

Q: With `Cc1ccc(NC(=O)c2sc(C)nc2C)c(C)c1` as the compound, how does the Potency read?
A: inactive

Q: Which Potency does the source give for `O=C1N/C(=C/c2ccco2)C(=O)N1Cc1ccccc1F` here?
A: inconclusive: 18.5 µM [inhibitor, single point]

Q: For `CC(=O)C1=C(C)NC2=C(C(=O)CC(C)(C)C2)C1C` (stereo not drawn), which Potency is on record?
A: inconclusive: 10.4 µM [inhibitor, single point]

Q: For `C1CCN=C(Nc2nc3c(s2)CCCC3)CC1`, which Potency is on record?
A: inconclusive: 11.7 µM [inhibitor, partial curve, poor fit]

Q: Which Potency does the source give for `COc1ccc2oc(C(=O)OCC(=O)N3CC(C)OC(C)C3)c(C)c2c1` (stereo not drawn) here?
A: inactive

Q: With `NCC(O)COCCC12CC3CC(CC(C3)C1)C2` (stereo not drawn) as the compound, how does the Potency read?
A: inactive

Q: For `Cc1ccc(C(=O)N2CCN(C)CC2)cc1S(=O)(=O)N1CCCCCC1`, which Potency is on record?
A: active: 2.33 µM

Q: With `Cc1ccc(NC(=O)Nc2ccc3c(c2)N(C)C(=O)CS3)cc1C` as the compound, how does the Potency read?
A: inconclusive: 2.33 µM [inhibitor, single point]

Q: Which Potency does the source give for `O=C(COc1ccc(F)cc1)NCCN1CCCC1` here?
A: inconclusive: 16.5 µM [inhibitor, single point]

Q: Which Potency does the source give for `Cc1ccc(N(Cc2ccccc2)C(=O)c2cccc(S(=O)(=O)N3CC(C)OC(C)C3)c2)cc1` (stereo not drawn) here?
A: inconclusive: 14.7 µM [inhibitor, single point]

Q: Which Potency does the source give for `COCc1cc(OC)nc(-c2csc(C)n2)n1` here?
A: inconclusive: 13.1 µM [inhibitor, single point]

Q: For `CCCNC(=O)c1cc(S(=O)(=O)N2CCCCC2)c[nH]1`, which Potency is on record?
A: inconclusive: 13.1 µM [inhibitor, single point]

Q: With `O=C(CN1C2=NCCCN2c2ccccc21)c1ccc([N+](=O)[O-])cc1` as the compound, how does the Potency read?
A: inconclusive: 2.94 µM [inhibitor, partial curve, poor fit]

Q: Which Potency does the source give for `c1ccc(Cn2c[n+](Cc3ccccc3)cn2)cc1` here?
A: inactive

Q: Which Potency does the source give for `COCCSc1ccccc1C(=O)Nc1ccc(Cl)cn1` here?
A: inactive

Q: For `COc1ccc(OCCC(=O)Nc2nccs2)cc1`, which Potency is on record?
A: inactive

Q: Which Potency does the source give for `Cc1nnc(SCC(=O)NCc2cccs2)[nH]c1=O` here?
A: inconclusive: 20.8 µM [inhibitor, single point]

Q: Which Potency does the source give for `CCC(CC)COC(=O)C1=C(C)NC(=O)NC1c1ccc(N(C)C)cc1` (stereo not drawn) here?
A: inconclusive: 14.7 µM [inhibitor, partial curve, poor fit]

Q: With `CN(Cc1nccs1)C(=O)C1CCC(=O)N(CCCc2ccccc2)C1` (stereo not drawn) as the compound, how does the Potency read?
A: inconclusive: 13.1 µM [inhibitor, partial curve]

Q: With `COc1cc(C(=O)N(C)CC2CCN(CCc3cccc(C(F)(F)F)c3)CC2)ccc1C` as the compound, how does the Potency read?
A: inconclusive: 11.7 µM [inhibitor, partial curve]

Q: For `COc1ccc(-c2ccc([C@H]3[C@@H]4C=CCC[C@@]4(C)C(=O)N3Cc3ccccc3)c(F)c2)cc1OC`, which Potency is on record?
A: inconclusive: 2.08 µM [inhibitor, partial curve, poor fit]

Q: Which Potency does the source give for `O=C(N/C(=C\c1cccnc1)c1nc2ccccc2[nH]1)c1cccc(Br)c1` here?
A: inactive

Q: For `O=C(O)c1ccc(CSc2nnc(-c3ccco3)o2)cc1`, which Potency is on record?
A: inactive

Q: Which Potency does the source give for `CN(CCCOc1ccccc1F)Cc1ccccc1` here?
A: inconclusive: 9.28 µM [inhibitor, partial curve, poor fit]

Q: Which Potency does the source give for `Cc1ccc(NS(=O)(=O)c2cccc(C(=O)N/N=C/c3ccc4c(c3)OCCO4)c2)c(C)c1` here?
A: inconclusive: 20.8 µM [inhibitor, partial curve, poor fit]

Q: For `Cc1ccc(NC(=O)C2CCN(c3cnccn3)CC2)cc1`, which Potency is on record?
A: inconclusive: 1.04 µM [inhibitor, full curve]
